From the supplement of paper PMC10849652 come the findings set out here.

Protein sequences, listed by entry. Tags and fused reporters are not part of them. Lines headed by an entry give the natural chain unless they say otherwise; changes in a name come on top.
UniProt Q9NQ48: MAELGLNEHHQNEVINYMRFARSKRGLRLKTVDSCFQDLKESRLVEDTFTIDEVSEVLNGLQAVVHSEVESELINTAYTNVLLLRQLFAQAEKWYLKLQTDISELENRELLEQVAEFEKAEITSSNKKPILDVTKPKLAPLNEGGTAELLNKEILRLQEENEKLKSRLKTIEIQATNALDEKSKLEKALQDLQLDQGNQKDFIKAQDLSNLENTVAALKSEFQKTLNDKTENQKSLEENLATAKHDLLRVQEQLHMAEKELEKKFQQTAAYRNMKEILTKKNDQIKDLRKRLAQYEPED
UniProt P20645: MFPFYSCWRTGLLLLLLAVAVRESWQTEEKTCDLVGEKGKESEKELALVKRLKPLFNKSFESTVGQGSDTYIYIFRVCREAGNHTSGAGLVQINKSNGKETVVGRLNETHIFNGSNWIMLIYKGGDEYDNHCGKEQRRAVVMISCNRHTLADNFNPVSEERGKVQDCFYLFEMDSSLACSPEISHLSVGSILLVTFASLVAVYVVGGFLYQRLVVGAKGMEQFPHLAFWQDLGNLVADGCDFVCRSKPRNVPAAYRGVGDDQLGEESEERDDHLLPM
UniProt Q13257, whole entry, looked up: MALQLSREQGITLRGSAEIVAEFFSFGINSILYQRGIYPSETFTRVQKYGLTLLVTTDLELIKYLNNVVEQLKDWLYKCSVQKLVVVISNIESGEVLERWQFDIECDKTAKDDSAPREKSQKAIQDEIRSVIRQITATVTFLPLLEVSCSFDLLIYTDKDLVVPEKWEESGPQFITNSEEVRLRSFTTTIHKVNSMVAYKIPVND
UniProt Q5SRI9: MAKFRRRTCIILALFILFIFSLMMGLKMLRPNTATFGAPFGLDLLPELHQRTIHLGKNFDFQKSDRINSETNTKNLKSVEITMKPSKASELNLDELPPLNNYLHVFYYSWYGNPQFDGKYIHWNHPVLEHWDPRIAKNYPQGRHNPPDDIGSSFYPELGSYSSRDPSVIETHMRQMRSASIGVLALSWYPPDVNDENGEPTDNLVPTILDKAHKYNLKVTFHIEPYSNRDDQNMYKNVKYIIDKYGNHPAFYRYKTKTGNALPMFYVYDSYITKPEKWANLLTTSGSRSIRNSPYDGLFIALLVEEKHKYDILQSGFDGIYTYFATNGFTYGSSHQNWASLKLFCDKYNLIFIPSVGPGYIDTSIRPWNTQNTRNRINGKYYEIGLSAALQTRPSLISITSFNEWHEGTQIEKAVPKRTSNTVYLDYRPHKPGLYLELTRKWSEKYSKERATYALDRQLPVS
UniProt Q8N2S1: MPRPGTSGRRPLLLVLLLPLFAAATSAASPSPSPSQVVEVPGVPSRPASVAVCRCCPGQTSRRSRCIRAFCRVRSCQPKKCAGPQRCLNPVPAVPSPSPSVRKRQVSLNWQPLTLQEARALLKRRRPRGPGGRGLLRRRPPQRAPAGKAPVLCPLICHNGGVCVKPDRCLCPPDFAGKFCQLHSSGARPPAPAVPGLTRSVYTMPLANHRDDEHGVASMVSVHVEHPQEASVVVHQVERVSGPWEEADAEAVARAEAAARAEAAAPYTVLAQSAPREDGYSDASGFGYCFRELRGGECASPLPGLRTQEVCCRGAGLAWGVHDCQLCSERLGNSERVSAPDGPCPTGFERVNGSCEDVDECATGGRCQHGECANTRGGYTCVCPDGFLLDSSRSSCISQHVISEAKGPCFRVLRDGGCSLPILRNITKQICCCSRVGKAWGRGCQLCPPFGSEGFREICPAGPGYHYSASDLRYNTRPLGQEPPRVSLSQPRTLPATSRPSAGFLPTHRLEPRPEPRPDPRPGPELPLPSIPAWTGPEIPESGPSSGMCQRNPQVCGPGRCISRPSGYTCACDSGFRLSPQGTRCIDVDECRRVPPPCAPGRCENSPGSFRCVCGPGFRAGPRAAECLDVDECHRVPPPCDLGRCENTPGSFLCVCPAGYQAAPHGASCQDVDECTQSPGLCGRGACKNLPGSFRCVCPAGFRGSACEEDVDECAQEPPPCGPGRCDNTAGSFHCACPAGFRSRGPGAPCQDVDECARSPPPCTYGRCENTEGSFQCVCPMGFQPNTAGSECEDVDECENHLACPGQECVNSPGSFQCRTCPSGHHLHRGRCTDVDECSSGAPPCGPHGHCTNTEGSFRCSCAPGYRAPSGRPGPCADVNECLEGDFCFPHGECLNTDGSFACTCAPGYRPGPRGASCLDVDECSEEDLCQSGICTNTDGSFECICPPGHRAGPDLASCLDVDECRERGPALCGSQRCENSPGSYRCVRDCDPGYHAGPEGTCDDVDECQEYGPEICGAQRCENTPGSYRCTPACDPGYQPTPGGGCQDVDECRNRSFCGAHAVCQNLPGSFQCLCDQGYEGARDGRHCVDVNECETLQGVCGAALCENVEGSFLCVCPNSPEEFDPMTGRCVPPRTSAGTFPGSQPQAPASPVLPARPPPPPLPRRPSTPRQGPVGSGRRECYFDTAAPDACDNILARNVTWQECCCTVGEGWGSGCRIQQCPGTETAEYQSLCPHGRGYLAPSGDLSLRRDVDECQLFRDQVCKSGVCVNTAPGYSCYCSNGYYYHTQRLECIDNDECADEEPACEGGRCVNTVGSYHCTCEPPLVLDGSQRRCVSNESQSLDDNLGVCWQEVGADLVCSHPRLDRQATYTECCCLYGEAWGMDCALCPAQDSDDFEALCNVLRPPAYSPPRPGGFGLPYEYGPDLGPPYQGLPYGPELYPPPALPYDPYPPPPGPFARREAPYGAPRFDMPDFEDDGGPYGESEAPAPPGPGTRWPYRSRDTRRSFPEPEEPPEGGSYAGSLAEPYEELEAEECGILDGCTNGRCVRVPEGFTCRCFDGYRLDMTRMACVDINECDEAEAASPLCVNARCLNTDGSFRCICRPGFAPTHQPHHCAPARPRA
UniProt Q9NQG1: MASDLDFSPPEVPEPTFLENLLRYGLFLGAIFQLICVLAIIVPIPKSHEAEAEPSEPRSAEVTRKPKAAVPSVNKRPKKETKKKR
UniProt Q9Y2E5: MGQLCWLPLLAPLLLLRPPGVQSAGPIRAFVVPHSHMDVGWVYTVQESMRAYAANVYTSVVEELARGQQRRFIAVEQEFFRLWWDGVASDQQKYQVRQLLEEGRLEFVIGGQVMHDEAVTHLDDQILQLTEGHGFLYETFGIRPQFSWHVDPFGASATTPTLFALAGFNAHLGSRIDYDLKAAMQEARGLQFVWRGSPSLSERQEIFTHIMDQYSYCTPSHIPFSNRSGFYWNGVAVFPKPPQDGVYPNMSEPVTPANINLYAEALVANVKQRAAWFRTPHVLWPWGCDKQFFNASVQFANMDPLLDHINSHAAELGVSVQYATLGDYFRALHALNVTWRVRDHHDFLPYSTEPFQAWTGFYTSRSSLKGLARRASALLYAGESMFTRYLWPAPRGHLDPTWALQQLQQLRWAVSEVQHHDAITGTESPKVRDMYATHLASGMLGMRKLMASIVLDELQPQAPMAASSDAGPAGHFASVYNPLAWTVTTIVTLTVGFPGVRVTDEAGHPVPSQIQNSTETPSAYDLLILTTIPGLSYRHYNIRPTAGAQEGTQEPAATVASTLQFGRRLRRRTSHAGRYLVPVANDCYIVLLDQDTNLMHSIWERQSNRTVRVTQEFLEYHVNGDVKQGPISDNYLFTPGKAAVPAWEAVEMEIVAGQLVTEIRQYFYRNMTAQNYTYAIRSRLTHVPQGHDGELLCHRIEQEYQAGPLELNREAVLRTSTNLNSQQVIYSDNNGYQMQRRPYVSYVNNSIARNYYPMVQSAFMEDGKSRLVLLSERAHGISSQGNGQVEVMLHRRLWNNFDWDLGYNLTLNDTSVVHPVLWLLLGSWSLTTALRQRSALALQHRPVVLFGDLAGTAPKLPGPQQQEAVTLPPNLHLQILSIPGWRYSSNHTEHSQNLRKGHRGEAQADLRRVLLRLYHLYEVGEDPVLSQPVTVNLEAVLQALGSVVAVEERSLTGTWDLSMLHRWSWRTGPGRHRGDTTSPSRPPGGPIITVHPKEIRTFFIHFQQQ
UniProt O60337: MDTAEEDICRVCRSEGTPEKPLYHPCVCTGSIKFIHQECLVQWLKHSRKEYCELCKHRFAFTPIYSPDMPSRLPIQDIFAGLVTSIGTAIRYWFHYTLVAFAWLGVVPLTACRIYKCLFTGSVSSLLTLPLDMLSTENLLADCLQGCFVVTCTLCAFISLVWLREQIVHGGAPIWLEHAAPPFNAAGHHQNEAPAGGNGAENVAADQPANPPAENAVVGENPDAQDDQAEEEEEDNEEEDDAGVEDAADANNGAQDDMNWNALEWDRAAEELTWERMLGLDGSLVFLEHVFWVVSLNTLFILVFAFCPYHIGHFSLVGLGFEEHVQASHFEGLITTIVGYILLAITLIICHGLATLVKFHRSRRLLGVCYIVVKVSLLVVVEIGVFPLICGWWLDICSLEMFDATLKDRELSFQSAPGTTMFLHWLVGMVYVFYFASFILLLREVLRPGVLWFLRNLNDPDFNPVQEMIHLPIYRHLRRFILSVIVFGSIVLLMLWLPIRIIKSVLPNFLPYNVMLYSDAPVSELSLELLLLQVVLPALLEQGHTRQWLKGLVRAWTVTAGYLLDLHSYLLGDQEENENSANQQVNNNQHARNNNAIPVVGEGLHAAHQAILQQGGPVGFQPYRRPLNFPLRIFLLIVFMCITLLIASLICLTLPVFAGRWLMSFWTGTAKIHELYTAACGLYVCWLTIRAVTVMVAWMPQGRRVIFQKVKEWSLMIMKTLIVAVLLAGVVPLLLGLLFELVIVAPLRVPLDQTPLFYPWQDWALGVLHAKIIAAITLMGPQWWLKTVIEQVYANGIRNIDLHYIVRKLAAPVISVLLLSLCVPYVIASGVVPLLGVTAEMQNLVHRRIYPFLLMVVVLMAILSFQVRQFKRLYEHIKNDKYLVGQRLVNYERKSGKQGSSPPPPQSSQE
UniProt O15525: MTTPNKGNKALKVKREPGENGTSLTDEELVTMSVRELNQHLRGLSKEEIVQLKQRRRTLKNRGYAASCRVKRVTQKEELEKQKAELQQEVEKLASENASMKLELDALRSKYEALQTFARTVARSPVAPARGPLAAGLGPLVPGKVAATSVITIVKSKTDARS
UniProt Q15759, whole entry, looked up: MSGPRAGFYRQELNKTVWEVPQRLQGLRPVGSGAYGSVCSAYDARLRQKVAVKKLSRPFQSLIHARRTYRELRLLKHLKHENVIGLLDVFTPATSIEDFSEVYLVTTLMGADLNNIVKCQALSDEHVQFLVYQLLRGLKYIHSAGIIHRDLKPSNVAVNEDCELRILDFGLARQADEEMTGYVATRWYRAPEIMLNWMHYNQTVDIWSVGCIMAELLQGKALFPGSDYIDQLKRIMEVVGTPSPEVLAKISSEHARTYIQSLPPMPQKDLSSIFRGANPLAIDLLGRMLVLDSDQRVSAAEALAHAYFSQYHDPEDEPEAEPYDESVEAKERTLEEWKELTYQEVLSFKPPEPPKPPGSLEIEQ
UniProt Q16553: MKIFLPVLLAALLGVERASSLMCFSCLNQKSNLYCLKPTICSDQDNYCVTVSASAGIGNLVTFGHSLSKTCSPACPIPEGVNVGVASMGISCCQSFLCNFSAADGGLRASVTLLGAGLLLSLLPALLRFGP
UniProt Q8IVH8: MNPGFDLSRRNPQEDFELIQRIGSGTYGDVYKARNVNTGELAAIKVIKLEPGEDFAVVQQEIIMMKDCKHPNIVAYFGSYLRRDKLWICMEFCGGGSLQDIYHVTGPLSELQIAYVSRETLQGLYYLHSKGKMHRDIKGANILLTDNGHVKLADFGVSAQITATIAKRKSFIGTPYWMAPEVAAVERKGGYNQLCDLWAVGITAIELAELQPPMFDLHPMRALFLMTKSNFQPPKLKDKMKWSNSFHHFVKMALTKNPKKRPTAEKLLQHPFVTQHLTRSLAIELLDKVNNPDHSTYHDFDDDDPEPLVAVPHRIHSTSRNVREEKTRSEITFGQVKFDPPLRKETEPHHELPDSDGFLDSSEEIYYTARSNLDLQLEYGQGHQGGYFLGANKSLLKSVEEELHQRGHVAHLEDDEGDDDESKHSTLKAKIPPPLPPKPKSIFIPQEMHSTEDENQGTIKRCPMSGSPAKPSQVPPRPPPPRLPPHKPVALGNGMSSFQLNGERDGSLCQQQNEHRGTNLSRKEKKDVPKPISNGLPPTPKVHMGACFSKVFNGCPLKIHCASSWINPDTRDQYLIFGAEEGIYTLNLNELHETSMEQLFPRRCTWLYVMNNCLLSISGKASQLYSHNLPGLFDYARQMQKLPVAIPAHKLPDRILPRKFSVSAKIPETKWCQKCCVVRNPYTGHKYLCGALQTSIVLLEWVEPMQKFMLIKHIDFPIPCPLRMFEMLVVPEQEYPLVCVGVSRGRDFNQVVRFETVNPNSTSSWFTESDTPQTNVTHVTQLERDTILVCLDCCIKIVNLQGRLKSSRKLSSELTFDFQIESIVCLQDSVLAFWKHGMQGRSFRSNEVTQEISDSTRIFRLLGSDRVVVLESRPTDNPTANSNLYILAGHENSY
UniProt Q8WV07: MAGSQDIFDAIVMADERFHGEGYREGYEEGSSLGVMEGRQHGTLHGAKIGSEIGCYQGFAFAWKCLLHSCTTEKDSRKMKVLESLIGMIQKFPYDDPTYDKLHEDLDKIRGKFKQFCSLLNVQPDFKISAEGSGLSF

The list shows a part of the results.

Compound in the first assay: CC[C@@H]1C(=O)N(C)c2cnc(Nc3ccc(C(=O)NC4CCN(C)CC4)cc3OC)nc2N1C1CCCC1
Put plainly: log2 fold change, soluble protein after heating vs DMSO (PISA); higher = thermal stabilisation; K562 lysate, 10 uM; active = over 0.2 and 3.5 SD of the protein, either way, in both replicates (recomputed). The method, boiled down:
(§1)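 Pellets of K562 cells were dounce-homogenised in PBS pH 7.4 with 1 mM MgCl2, and the crude extract was held at 1 mg/mL protein for a 30 min treatment with 10 μM compound. Aliquots were heated for 3 min over 48°C-58°C and pooled before NP-40 was added to 0.5% at 4°C. The supernatant from 21,000xg for 90 min was quantified by TMTpro 16plex LC-MS/MS with channel sums equalised. Values are reported from duplicates as log-two fold change in thermal stability relative to solvent controls.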
For the target LZTFL1 (UniProt Q9NQ48), the log2 fold change was inactive: -0.005.
The same measure, in the same setting: the result for M6PR (UniProt P20645) reads inactive: 0.051; that for MAD2L1 (UniProt Q13257), inactive: -0.024.

Compound in a further assay: CC[C@@H]1C(=O)N(C)c2cnc(Nc3ccc(C(=O)N[C@H]4CC[C@H](N5CCN(CC6CC6)CC5)CC4)cc3OC)nc2N1C(C)C [volasertib]
The description is as above. The method, boiled down:
as §1
As to LUC7L3 (UniProt O95232), the log2 fold change is inactive: -0.005.
On to MAP3K5 (UniProt Q99683), for which the log2 fold change is inactive: -0.017.
As to MANEA (UniProt Q5SRI9), the log2 fold change was inactive: -0.084.
Regarding MAPRE3 isoform 2 (UniProt Q9UPY8), the log2 fold change was inactive: -0.026.
The same measure, in the same setting: the value for LTBP4 (UniProt Q8N2S1) was inactive: -0.021; that for MANBAL (UniProt Q9NQG1) was inactive: -0.005; that for MAP4K2 (UniProt Q12851) was inactive: -0.035.
The same measure, in the same setting: the value for MAST2 (UniProt Q6P0Q8) was inactive: 0.045; that for MAGI3 isoform 1 (UniProt Q5TCQ9) was inactive: -0.076; that for MAP4 isoform 5 (UniProt P27816) was inactive: 0.044.
Turning to MAP4K5 (UniProt Q9Y4K4), the log2 fold change is inactive: -0.069.
For MAP7 (UniProt Q14244), the log2 fold change is inactive: 0.007.
Still for that read-out and setting: the result for MAN2B2 (UniProt Q9Y2E5) reads inactive: -0.006.
The same measure, in the same setting: the result for MAP4 (UniProt E7EVA0) reads inactive: -0.021; that for MARCHF6 (UniProt O60337), inactive: 0.078; that for MACF1 (UniProt E9PLY5), inactive: -0.288.
Same read-out and setting: the result for MAP4K4 isoform 6 (UniProt O95819) reads inactive: -0.04; that for LZTS2 (UniProt Q9BRK4), inactive: 0.08.
For the target LTBR (UniProt P36941), the log2 fold change was inactive: -0.077.
On the same count and under the same terms, the result for MAP7D3 (UniProt Q8IWC1) reads inactive: 0.018.
In the case of MAFG (UniProt O15525), the log2 fold change is inactive: -0.036.
In the case of MAPK11 (UniProt Q15759), the log2 fold change was inactive: -0.054.
Still for that read-out and setting: the result for MAGED1 isoform 2 (UniProt Q9Y5V3) reads inactive: 0.02; that for LY6E (UniProt Q16553), inactive: 0.022; that for LZTFL1 (UniProt Q9NQ48), inactive: -0.003.
The same measure, in the same setting: the result for M6PR (UniProt P20645) reads inactive: -0.013.
On the same count and under the same terms, the value for MAD2L1 (UniProt Q13257) was inactive: 0.031.

Compound in the next assay: CCn1c(C(=O)N(C2CC2)C2CC2)cc2c3c(ncn3C)c(Nc3cc(C)n(C)n3)nc21
The assay is described as above. The method, boiled down: as §1
On to LUC7L3 (UniProt O95232), for which the log2 fold change was inactive: -0.019.
Turning to MAP3K5 (UniProt Q99683), the log2 fold change was inactive: -0.158.
Same read-out and setting: the result for MACF1, A0A0A6YYJ5 reads inactive: 0.076.
For the target MAP4K3 (UniProt Q8IVH8), the log2 fold change is inactive: 0.238.
Still for that read-out and setting: the result for LTO1 (UniProt Q8WV07) reads inactive: -0.011; that for MANEA (UniProt Q5SRI9), inactive: 0.005; that for MAPRE3 isoform 2 (UniProt Q9UPY8), inactive: -0.095.
Same read-out and setting: the value for LTBP4 (UniProt Q8N2S1) was inactive: 0.022.
On the same count and under the same terms, the result for MANBAL (UniProt Q9NQG1) reads inactive: -0.014.
For the target MAP4K2 (UniProt Q12851), the log2 fold change was inactive: -0.023.
Regarding MAST2 (UniProt Q6P0Q8), the log2 fold change was inactive: -0.127.
Still for that read-out and setting: the result for MAGI3 isoform 1 (UniProt Q5TCQ9) reads inactive: -0.009; that for MAML1 (UniProt Q92585), inactive: 0.055.
The same measure, in the same setting: the value for MAP4 isoform 5 (UniProt P27816) was inactive: -0.266; that for MAP4K5 (UniProt Q9Y4K4) was inactive: 0.014; that for MAPK12 (UniProt P53778) was inactive: -0.029.
Take MARF1 (UniProt Q9Y4F3): the log2 fold change is inactive: 0.007.
The same measure, in the same setting: the value for MAN2B2 (UniProt Q9Y2E5) was inactive: -0.022.
Still for that read-out and setting: the value for MAP4 (UniProt E7EVA0) was inactive: -0.141; that for MAP4K4 isoform 6 (UniProt O95819) was inactive: -0.025; that for MAP7D3 (UniProt Q8IWC1) was inactive: 0.029.
Turning to MAFG (UniProt O15525), the log2 fold change is inactive: -0.078.
Consider MAPK11 (UniProt Q15759), for which the log2 fold change is inactive: -0.154.
On the same count and under the same terms, the value for MAGED1 isoform 2 (UniProt Q9Y5V3) was inactive: 0.011.
Same read-out and setting: the result for LZTFL1 (UniProt Q9NQ48) reads inactive: -0.032.
Still for that read-out and setting: the result for M6PR (UniProt P20645) reads inactive: -0.007.
Turning to MAD2L1 (UniProt Q13257), the log2 fold change was inactive: 0.023.
